Reference: publication PMC7819943, “Rice protein-binding microarrays: a tool to detect cis-acting elements near promoter regions in rice”
This is one part of the list.

By UniProt entry, the sequences of proteins in these tests, tags left out.
UniProt Q0JBA9, entry or part of it: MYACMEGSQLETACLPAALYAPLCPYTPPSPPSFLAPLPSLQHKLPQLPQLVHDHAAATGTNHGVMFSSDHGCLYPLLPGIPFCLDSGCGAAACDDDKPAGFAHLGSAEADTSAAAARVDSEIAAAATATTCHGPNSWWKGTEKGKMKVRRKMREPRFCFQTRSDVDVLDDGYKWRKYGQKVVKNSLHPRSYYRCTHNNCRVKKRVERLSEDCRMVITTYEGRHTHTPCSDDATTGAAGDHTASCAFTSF

molecular target: OsWRKY34 (Oryza sativa, UniProt Q0JBA9 1-250); assay: protein-binding microarray (RPBM); PBS, 2% BSA, 51.3 ng/ul salmon testes DNA, 50 uM zinc acetate, 200 nM TF, 25 C, 1 h; high values mean tight binding; conditions: protein: recombinant; tags: N-terminal polyhistidine and DsRed monomer fusion (pET32a); label: CyDye5-dUTP incorporated in the synthesized complementary strand; 3' TTTTT single-stranded linker to array surface; dsDNA, one strand shown
Outline: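 Binding signal is defined as the fluorescence intensity of each feature in arbitrary units, read on an Axon 4000B scanner. Transcription factors with N-terminal polyhistidine and DsRed fusions came from E. coli BL21-CodonPlus and were purified on Ni–NTA. They were incubated at 200 nM for 1 h at 25 °C on a custom Agilent array that had been made double-stranded with Cy5-dUTP, with 50 µM zinc acetate present, and the array was washed.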

Sequence | binding signal
GCCTCGCGTCCCCGCGATTTCTCACTCGCCATCGCCGACGCGGAGTCACCTAGTGCAG | 8270 fluorescence intensity (a.u.)
CTAGTAGTAGCTCGTAATCTAGGCTAGTAGCATCCCGTACCGGAGTCACCTAGTGCAG | 8650 fluorescence intensity (a.u.)
TCCTTTTTTTTCAGTATCTTTTTTTTTTTGCGCCAAAGTCCGGAGTCACCTAGTGCAG | 8330 fluorescence intensity (a.u.)
TTGGCTATCTTCTCTCCTGTATTGACCCATAATTCTGCAGCGGAGTCACCTAGTGCAG | 8480 fluorescence intensity (a.u.)
AGAAGCCCCACCGCTTCCGCCCCGGCACCGTCGCGCTCCGCGGAGTCACCTAGTGCAG | 8790 fluorescence intensity (a.u.)
CGTTCGTTCTCTCTCCATCCATTCACGCGATTGACGCGAGCGGAGTCACCTAGTGCAG | 10100 fluorescence intensity (a.u.)
TTTCTATTGCATTAGTTAGGCTACTTGTTTTAAACTATTCCGGAGTCACCTAGTGCAG | 12500 fluorescence intensity (a.u.)
GGAAGTTCTGAGTCAGGCCCCATCATCTCATTGCTGTCTACGGAGTCACCTAGTGCAG | 10900 fluorescence intensity (a.u.)
GGGCCTTACTAAATGATTCAGCCCATGGGCCCTACAACACCGGAGTCACCTAGTGCAG | 9220 fluorescence intensity (a.u.)
TTTGAGGTTTTACTTACAACTTTTGACCACTCGTCTTATTCGGAGTCACCTAGTGCAG | 10000 fluorescence intensity (a.u.)
GGAGCTAGGCCCAACATCCCAACTGTCACTACTTCATCCACGGAGTCACCTAGTGCAG | 9340 fluorescence intensity (a.u.)
CTCCCAGCGCAGTGGCTTCGCCCCACGCCCTACTGTTTTACGGAGTCACCTAGTGCAG | 9070 fluorescence intensity (a.u.)
ACAATGGCACGGTCTACAAAATATATTTTTGACCTTATTTCGGAGTCACCTAGTGCAG | 8440 fluorescence intensity (a.u.)
TGTGCCATGAAATTTTGTTTGATTCAGTTTAATATATACTCGGAGTCACCTAGTGCAG | 9120 fluorescence intensity (a.u.)
ATTGATGGTTTTATTTTTTTGCGAAGGGGTGGTGACTGGACGGAGTCACCTAGTGCAG | 9610 fluorescence intensity (a.u.)
GTTCGGCGCAACTTGCTTTTTTTTTTTCCTTTTCTTTCTTCGGAGTCACCTAGTGCAG | 10500 fluorescence intensity (a.u.)
CCTCCCGTCCTCACCGCCGCCGCCGCCTCACCAGCGCCACCGGAGTCACCTAGTGCAG | 14300 fluorescence intensity (a.u.)
GGCCCTACTACCACAATCCCATGCTCGCCGCCTAGAGAAGCGGAGTCACCTAGTGCAG | 10200 fluorescence intensity (a.u.)
TGTTGTCTTTCGTTTTTCCGCTGCATTTACGTAAGACTTTCGGAGTCACCTAGTGCAG | 9340 fluorescence intensity (a.u.)
AATCTGTACCCATAAGCCACCACGTTGACCATAATGATTTCGGAGTCACCTAGTGCAG | 13000 fluorescence intensity (a.u.)
AGTTCCATAGGCTAAAACTCCACCAACTCACATGCTCTCACGGAGTCACCTAGTGCAG | 8310 fluorescence intensity (a.u.)

Sequence | binding signal
CTCTCTCCTCGTCTTCCTCGCGCTGACTCTTCTCCTCCTCCGGAGTCACCTAGTGCAG | 8620 fluorescence intensity (a.u.)
CCGAGAATGGGTGGTGGGTGGCCTGTGAGTGGCTACCGGCCGGAGTCACCTAGTGCAG | 9250 fluorescence intensity (a.u.)
CGGTGGCCGGTACACGCCCATCTGCTTCCTGTTCACACGACGGAGTCACCTAGTGCAG | 8050 fluorescence intensity (a.u.)
TGGCGCATTGTCAGCGTGTGCCTTGGCCAAATTTACCCACCGGAGTCACCTAGTGCAG | 8150 fluorescence intensity (a.u.)
GGTTGAGCGCCGCGGTCATTGCGTGCACTTGCGGTCGAGCCGGAGTCACCTAGTGCAG | 8830 fluorescence intensity (a.u.)
AAACGATTTCTTTTTTTTTTTTTGGTTATGCAGCAACTATCGGAGTCACCTAGTGCAG | 8790 fluorescence intensity (a.u.)
TAATTTGTGCTCCACTATACACTTTGACTCAACCCAATTTCGGAGTCACCTAGTGCAG | 9080 fluorescence intensity (a.u.)
ACACCCCGGACTACTTTCGCCGTTCTAAAAAAACATAACCCGGAGTCACCTAGTGCAG | 8400 fluorescence intensity (a.u.)
TCCCTTGCGCGGCCATTGCTCTCATCCTCGAACCCTTACCCGGAGTCACCTAGTGCAG | 12100 fluorescence intensity (a.u.)
CTGTAACTCTCTATCTCTGTGTATTATTTGTGTATTTTGACGGAGTCACCTAGTGCAG | 13000 fluorescence intensity (a.u.)
TTAATATATCCTGTTTTTTTTTCATCATTCTCTTTCTTTCCGGAGTCACCTAGTGCAG | 10200 fluorescence intensity (a.u.)
CTCCATATCTGGTTTTTGGGTTGAATGAATCAATTTGGGGCGGAGTCACCTAGTGCAG | 8790 fluorescence intensity (a.u.)
CTGTCAGAATCCTGTGCTTTTCCTATTCCTTTATTTTTTCCGGAGTCACCTAGTGCAG | 12800 fluorescence intensity (a.u.)
GACATCACCACAAATCAACCCCTTGCAACCATTTCAATCACGGAGTCACCTAGTGCAG | 12700 fluorescence intensity (a.u.)
GCTTGAAGACCATCTATCCATTGTTGTCGCATTGTATCATCGGAGTCACCTAGTGCAG | 8140 fluorescence intensity (a.u.)
ATCCCGTTGCGTCCCATTTTCCTCGCCCTCGTCGCTAGTTCGGAGTCACCTAGTGCAG | 11200 fluorescence intensity (a.u.)
TGCCTGTATTCTCTATGCTGATCAGCTTACGTTGGCATGTCGGAGTCACCTAGTGCAG | 8640 fluorescence intensity (a.u.)
GGGCCTCTCTCTCTCTCCGTCTCTCTGGCAGTTGGGCCCCCGGAGTCACCTAGTGCAG | 8880 fluorescence intensity (a.u.)
GTGGTGGTGTTTGGATGAACAGTGAGCAGGCAAATGCTCTCGGAGTCACCTAGTGCAG | 8110 fluorescence intensity (a.u.)
TGGATGCCTTCCATGTTGACTTTGTTTTGTATAGACCATACGGAGTCACCTAGTGCAG | 9170 fluorescence intensity (a.u.)
CGCCACCGTACCGCTGCCCGCGCCGAACCCTCGCCATTTCCGGAGTCACCTAGTGCAG | 9490 fluorescence intensity (a.u.)

Sequence | binding signal
CAAGTTTATGTTCGTCTCGCCTTTGTTTAATTTCTCTTTCCGGAGTCACCTAGTGCAG | 12000 fluorescence intensity (a.u.)
TGCTGGCTGAATACTACTACCATGTCATCTATAGCCATCACGGAGTCACCTAGTGCAG | 8760 fluorescence intensity (a.u.)
GGATAAAAGTCAGGAAGGATCGGGGTGTATAACAAACAAACGGAGTCACCTAGTGCAG | 8430 fluorescence intensity (a.u.)
CATTTTTAAATCCTAACCATTCATTCTCCCTTTTCCATTTCGGAGTCACCTAGTGCAG | 9100 fluorescence intensity (a.u.)
ACGCACTGTCAACCCATGACGCCACTGCTACGGTCTTCCGCGGAGTCACCTAGTGCAG | 8240 fluorescence intensity (a.u.)
TGTCTCAACAACAAGCTCTGTGTGCTGCAGTGTCATTCCACGGAGTCACCTAGTGCAG | 8160 fluorescence intensity (a.u.)
AAATTTGAAGTAGTTTGACTTTGACCAAAGTCAAAACATCCGGAGTCACCTAGTGCAG | 17600 fluorescence intensity (a.u.)
TTGAGCAGCCTGGATTTTGTTGATCTCTCACACAACACACCGGAGTCACCTAGTGCAG | 9680 fluorescence intensity (a.u.)
GTAGGGCTGCTTGCGCCGCTGTGTTTTTTGTGCTTTGGTTCGGAGTCACCTAGTGCAG | 8550 fluorescence intensity (a.u.)
ACTTCGTGGGGTGCCTCACTGCCTCCTGCAGTACTAATATCGGAGTCACCTAGTGCAG | 9500 fluorescence intensity (a.u.)
TTTGCTCATTTATTCACTTGCCACATTATTTTTTAGGCAACGGAGTCACCTAGTGCAG | 13900 fluorescence intensity (a.u.)
TCGTTGTCTAGCTGGAGGCTTTGAGCTCCTCATGTGCGTTCGGAGTCACCTAGTGCAG | 8560 fluorescence intensity (a.u.)
AGTCTCTATATGAACCTCTAAGCAATTCCCATCACATTTTCGGAGTCACCTAGTGCAG | 8320 fluorescence intensity (a.u.)
GATGCCGCCCGCCGTCAACCTCGCCGCCAACCGCGCGCCGCGGAGTCACCTAGTGCAG | 9850 fluorescence intensity (a.u.)
ACTCCGCCGTGCGCATCCTCTCTCGCTCGCTCCTCACTCGCGGAGTCACCTAGTGCAG | 10300 fluorescence intensity (a.u.)
TTCCCATTTCGCCGATCCCACCCACGGCGGCGCCGCCACCCGGAGTCACCTAGTGCAG | 8050 fluorescence intensity (a.u.)
ATCTGGTTTTGTGGTTTAGGGTCATGGATTAGATTTCGACCGGAGTCACCTAGTGCAG | 10300 fluorescence intensity (a.u.)
ACCACTCCTTCTAAAACCCGGAATTTCCCTCCTTTCGTCTCGGAGTCACCTAGTGCAG | 8850 fluorescence intensity (a.u.)
AATGTTTGACGCCGTTGACTTTTTTAAACATGTTTGACCACGGAGTCACCTAGTGCAG | 42500 fluorescence intensity (a.u.)
CTCGCAAGCATTCGCACCGCATTCCTTCGTCTGTTGCTGCCGGAGTCACCTAGTGCAG | 8150 fluorescence intensity (a.u.)
CGAGCTCCACCACCACCACCACCACCACCTCCTCCTCCTCCGGAGTCACCTAGTGCAG | 9950 fluorescence intensity (a.u.)

Fetched one by one from above:
Sequence | binding signal
AGTTCCATAGGCTAAAACTCCACCAACTCACATGCTCTCACGGAGTCACCTAGTGCAG | 8310 fluorescence intensity (a.u.)
CTGTCAGAATCCTGTGCTTTTCCTATTCCTTTATTTTTTCCGGAGTCACCTAGTGCAG | 12800 fluorescence intensity (a.u.)
CCTCCCGTCCTCACCGCCGCCGCCGCCTCACCAGCGCCACCGGAGTCACCTAGTGCAG | 14300 fluorescence intensity (a.u.)

Next entries

Sequence | binding signal
ATAATTTTGCTTGTGTGGTTAGTTTGTTTGGGCCGCTTTCCGGAGTCACCTAGTGCAG | 10800 fluorescence intensity (a.u.)
CTCGCTTGCTTACCATTAACCACAGTAACAAGTGCACCACCGGAGTCACCTAGTGCAG | 8090 fluorescence intensity (a.u.)
TCTAAACCGCAACAATGGTAAATTTACCCGGTCCAAATTGCGGAGTCACCTAGTGCAG | 9380 fluorescence intensity (a.u.)
CGCGTGCTCCGTTTCTGCCTTCCGCTTTCCATCGCGCACGCGGAGTCACCTAGTGCAG | 13500 fluorescence intensity (a.u.)
CTCTGTTCATCCACGCTACCTCGCGTCCCTCTCTCCTCTCCGGAGTCACCTAGTGCAG | 10100 fluorescence intensity (a.u.)
CCTTGCCGCGTGTCCACCTGCCCTTTCATCGACACCAACACGGAGTCACCTAGTGCAG | 8400 fluorescence intensity (a.u.)
TTTCCACCGTTTGGCGTTTGGGTAGGGTTGGGATGGGATGCGGAGTCACCTAGTGCAG | 17200 fluorescence intensity (a.u.)
GCCTCAAGTAATTCACAGTTTTCTGCAGCCGACGACCGCTCGGAGTCACCTAGTGCAG | 8330 fluorescence intensity (a.u.)
CCTTCCTTGGCTGCCCGTGAGCTTCCCGCGCGCGCCATGGCGGAGTCACCTAGTGCAG | 8210 fluorescence intensity (a.u.)
ACCCAACTGCAGATAACCACCAGGACCAGACCATCAGCGCCGGAGTCACCTAGTGCAG | 9480 fluorescence intensity (a.u.)
TTTTTCACTTTGCTCTAATCCAAATCTTTTTTTTCTCTCTCGGAGTCACCTAGTGCAG | 9220 fluorescence intensity (a.u.)
TACCTTTCGTTAATCCACTCACCAACTACACACTGACTGACGGAGTCACCTAGTGCAG | 8860 fluorescence intensity (a.u.)
TTTCGTCAGCTGATCGTATATTGACCTTTTCTGTCTCTGTCGGAGTCACCTAGTGCAG | 10500 fluorescence intensity (a.u.)
GTTGCCTCTCTCTCTCTCTCTCTCTCTCTCTTGCAGAACGCGGAGTCACCTAGTGCAG | 8930 fluorescence intensity (a.u.)
GGAGGCCCATCACCGTCTCGCACTTTCTCGCTTCTAGTCCCGGAGTCACCTAGTGCAG | 9130 fluorescence intensity (a.u.)
CTCGTTTTTACGCGTGATTTCGTCGTCTTGTTGCTGCTGACGGAGTCACCTAGTGCAG | 9260 fluorescence intensity (a.u.)
GTCTTATATTGCTTTTGGTTCGATTGTGGGCTTCGCGGGCCGGAGTCACCTAGTGCAG | 11300 fluorescence intensity (a.u.)
TGCCACCCATATCCCACGCCCATCACCGAATACGAATCTGCGGAGTCACCTAGTGCAG | 9090 fluorescence intensity (a.u.)
GGAAATTCGCAATAAATTTTTTGGTACCTCTTTCTCCATCCGGAGTCACCTAGTGCAG | 8520 fluorescence intensity (a.u.)
CACTGTCTATCCACCCAACCAGCCACTGACTGAAGCTTCACGGAGTCACCTAGTGCAG | 8820 fluorescence intensity (a.u.)
GCGGATTAATTACTACTGGGCTGGCATTCTGATCACTTTGCGGAGTCACCTAGTGCAG | 8850 fluorescence intensity (a.u.)

In another format: results already given.
Sequence	binding signal
ATAATTTTGCTTGTGTGGTTAGTTTGTTTGGGCCGCTTTCCGGAGTCACCTAGTGCAG	10800 fluorescence intensity (a.u.)
GCGGATTAATTACTACTGGGCTGGCATTCTGATCACTTTGCGGAGTCACCTAGTGCAG	8850 fluorescence intensity (a.u.)
